Results on 28 targets are retold here after the supplement of paper PMC12819154, “High-throughput peptide-centric local stability assay extends protein–ligand identification to membrane proteins, tissues and bacteria” (Nature Structural & Molecular Biology, 2025).

Sequences of proteins named here, by UniProt entry; tags and fusion partners are left off. A change or cut given only in a name is not applied to a line headed by its entry.
UniProt P26350: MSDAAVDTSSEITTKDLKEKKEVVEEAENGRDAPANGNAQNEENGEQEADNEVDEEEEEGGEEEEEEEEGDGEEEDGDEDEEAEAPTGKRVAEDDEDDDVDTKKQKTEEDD
UniProt P29595, whole entry: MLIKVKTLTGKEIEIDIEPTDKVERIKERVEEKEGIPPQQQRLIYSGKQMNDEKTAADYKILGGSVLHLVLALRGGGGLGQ
UniProt P18608: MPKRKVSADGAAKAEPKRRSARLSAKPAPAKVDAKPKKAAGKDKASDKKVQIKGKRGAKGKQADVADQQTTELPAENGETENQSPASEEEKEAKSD
UniProt P23950: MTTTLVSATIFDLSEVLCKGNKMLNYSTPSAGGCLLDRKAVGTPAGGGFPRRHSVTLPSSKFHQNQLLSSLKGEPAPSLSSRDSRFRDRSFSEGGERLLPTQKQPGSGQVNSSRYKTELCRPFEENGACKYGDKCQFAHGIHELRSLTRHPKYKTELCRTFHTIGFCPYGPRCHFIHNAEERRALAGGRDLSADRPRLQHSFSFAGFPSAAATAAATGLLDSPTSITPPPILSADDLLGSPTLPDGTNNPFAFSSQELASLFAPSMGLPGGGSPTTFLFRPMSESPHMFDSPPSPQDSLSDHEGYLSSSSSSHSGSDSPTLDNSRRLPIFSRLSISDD
UniProt P25322, whole entry: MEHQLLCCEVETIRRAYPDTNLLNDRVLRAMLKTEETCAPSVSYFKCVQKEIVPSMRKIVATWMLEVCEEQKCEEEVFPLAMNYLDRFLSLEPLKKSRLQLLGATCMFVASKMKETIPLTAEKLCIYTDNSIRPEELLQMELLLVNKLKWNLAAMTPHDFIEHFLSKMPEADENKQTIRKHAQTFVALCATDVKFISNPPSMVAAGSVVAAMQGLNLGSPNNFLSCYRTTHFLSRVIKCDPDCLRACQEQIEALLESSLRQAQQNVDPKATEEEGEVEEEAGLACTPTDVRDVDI
UniProt P16110, whole entry: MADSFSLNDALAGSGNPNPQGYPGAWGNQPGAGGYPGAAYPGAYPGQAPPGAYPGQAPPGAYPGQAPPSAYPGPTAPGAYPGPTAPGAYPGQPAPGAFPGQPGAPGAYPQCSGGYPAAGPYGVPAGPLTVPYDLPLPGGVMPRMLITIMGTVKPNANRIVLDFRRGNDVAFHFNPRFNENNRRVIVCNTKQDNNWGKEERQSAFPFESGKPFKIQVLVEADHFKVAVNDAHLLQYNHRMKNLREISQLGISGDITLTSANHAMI
UniProt P15975: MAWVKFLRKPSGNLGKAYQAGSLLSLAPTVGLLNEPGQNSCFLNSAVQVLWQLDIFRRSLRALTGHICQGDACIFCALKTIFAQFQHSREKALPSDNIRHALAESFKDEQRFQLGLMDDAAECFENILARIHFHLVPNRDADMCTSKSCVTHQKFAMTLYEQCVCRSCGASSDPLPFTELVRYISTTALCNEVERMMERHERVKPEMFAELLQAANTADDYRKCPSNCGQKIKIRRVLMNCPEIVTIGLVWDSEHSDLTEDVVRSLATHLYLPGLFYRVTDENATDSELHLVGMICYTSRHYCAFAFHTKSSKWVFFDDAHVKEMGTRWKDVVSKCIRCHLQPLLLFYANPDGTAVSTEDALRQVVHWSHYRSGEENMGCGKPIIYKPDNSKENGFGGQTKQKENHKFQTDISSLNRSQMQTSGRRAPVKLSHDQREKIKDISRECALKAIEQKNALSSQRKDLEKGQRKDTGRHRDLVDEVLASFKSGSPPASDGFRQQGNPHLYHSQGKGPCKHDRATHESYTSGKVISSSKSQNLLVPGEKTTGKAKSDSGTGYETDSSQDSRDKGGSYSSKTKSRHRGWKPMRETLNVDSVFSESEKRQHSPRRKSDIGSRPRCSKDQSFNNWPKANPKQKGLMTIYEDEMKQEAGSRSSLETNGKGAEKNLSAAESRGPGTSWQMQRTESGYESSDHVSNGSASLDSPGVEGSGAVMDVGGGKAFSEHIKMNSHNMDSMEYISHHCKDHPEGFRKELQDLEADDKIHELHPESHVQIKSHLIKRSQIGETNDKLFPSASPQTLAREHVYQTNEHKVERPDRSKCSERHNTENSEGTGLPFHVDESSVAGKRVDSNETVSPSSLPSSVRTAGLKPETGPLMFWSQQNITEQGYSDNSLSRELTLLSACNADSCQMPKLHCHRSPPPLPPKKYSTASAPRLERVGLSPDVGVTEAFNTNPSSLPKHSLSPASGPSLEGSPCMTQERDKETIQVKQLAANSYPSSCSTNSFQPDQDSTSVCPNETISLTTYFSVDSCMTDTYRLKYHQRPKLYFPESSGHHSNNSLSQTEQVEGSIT
UniProt P28667: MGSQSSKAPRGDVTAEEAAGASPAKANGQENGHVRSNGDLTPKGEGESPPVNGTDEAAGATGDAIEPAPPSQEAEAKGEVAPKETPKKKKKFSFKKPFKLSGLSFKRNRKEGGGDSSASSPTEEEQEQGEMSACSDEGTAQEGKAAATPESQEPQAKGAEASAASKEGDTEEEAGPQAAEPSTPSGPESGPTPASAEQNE
UniProt P31651: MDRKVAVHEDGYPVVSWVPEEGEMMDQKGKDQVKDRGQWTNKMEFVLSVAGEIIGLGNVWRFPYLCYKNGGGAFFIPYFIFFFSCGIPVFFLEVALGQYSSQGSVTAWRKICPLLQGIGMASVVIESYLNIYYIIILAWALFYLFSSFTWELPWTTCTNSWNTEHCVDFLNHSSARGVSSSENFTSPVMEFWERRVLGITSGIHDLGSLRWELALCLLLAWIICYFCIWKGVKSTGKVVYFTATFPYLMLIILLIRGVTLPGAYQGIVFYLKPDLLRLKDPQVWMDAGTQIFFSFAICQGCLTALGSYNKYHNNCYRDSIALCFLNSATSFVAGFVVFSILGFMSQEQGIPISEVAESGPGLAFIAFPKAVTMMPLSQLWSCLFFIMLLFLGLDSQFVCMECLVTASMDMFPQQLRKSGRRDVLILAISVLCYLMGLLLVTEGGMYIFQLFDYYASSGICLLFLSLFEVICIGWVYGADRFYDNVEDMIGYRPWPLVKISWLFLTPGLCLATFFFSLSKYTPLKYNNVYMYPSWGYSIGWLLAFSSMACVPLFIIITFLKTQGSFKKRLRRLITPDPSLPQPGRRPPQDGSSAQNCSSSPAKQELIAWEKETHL
UniProt P20108: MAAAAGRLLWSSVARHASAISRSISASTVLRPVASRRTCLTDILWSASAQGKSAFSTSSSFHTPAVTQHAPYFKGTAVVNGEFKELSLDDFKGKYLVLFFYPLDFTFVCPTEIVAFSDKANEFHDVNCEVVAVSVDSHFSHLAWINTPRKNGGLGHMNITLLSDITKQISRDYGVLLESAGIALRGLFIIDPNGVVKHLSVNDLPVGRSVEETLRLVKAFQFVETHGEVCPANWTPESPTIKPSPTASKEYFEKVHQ
UniProt P24457: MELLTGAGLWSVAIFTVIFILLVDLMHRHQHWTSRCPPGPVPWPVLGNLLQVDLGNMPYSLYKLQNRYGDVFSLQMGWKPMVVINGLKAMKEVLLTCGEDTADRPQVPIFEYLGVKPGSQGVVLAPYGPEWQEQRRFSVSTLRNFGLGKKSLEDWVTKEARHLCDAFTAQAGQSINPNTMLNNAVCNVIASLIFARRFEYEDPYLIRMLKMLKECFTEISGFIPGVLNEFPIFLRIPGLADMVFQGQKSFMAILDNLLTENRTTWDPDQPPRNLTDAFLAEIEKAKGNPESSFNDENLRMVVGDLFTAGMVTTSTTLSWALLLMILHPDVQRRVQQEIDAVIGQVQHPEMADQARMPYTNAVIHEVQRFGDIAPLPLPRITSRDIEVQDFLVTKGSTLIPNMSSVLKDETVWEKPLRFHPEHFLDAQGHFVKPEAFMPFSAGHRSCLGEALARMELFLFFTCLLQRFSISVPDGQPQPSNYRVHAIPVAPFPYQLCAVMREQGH
UniProt P19788: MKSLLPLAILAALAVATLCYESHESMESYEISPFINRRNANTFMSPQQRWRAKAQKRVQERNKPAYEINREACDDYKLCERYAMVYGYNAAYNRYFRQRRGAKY
UniProt P17156, whole entry: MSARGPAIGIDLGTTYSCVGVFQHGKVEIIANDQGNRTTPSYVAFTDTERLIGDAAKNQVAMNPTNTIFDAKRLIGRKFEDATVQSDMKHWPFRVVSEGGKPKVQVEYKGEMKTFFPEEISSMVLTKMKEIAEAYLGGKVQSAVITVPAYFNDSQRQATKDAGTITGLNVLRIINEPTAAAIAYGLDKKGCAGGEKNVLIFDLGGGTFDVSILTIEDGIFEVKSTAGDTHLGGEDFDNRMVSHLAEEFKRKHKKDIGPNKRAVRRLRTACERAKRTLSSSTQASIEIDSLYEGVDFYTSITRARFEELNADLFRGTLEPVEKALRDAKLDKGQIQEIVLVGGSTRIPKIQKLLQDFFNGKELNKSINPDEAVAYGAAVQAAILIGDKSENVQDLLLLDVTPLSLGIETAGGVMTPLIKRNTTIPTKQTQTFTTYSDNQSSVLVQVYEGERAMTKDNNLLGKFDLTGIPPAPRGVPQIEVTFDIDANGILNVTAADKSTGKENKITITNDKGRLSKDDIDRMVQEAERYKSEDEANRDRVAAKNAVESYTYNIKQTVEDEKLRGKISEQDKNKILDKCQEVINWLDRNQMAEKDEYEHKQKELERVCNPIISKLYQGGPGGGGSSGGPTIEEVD
UniProt P28063: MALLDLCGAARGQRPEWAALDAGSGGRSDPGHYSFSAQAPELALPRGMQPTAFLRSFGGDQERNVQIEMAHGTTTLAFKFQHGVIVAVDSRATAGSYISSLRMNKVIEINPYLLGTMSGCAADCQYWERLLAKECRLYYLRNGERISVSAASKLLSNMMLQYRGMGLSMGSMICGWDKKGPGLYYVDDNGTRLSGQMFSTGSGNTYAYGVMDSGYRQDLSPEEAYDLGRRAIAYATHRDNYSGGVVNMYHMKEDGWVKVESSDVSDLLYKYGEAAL
UniProt P30415: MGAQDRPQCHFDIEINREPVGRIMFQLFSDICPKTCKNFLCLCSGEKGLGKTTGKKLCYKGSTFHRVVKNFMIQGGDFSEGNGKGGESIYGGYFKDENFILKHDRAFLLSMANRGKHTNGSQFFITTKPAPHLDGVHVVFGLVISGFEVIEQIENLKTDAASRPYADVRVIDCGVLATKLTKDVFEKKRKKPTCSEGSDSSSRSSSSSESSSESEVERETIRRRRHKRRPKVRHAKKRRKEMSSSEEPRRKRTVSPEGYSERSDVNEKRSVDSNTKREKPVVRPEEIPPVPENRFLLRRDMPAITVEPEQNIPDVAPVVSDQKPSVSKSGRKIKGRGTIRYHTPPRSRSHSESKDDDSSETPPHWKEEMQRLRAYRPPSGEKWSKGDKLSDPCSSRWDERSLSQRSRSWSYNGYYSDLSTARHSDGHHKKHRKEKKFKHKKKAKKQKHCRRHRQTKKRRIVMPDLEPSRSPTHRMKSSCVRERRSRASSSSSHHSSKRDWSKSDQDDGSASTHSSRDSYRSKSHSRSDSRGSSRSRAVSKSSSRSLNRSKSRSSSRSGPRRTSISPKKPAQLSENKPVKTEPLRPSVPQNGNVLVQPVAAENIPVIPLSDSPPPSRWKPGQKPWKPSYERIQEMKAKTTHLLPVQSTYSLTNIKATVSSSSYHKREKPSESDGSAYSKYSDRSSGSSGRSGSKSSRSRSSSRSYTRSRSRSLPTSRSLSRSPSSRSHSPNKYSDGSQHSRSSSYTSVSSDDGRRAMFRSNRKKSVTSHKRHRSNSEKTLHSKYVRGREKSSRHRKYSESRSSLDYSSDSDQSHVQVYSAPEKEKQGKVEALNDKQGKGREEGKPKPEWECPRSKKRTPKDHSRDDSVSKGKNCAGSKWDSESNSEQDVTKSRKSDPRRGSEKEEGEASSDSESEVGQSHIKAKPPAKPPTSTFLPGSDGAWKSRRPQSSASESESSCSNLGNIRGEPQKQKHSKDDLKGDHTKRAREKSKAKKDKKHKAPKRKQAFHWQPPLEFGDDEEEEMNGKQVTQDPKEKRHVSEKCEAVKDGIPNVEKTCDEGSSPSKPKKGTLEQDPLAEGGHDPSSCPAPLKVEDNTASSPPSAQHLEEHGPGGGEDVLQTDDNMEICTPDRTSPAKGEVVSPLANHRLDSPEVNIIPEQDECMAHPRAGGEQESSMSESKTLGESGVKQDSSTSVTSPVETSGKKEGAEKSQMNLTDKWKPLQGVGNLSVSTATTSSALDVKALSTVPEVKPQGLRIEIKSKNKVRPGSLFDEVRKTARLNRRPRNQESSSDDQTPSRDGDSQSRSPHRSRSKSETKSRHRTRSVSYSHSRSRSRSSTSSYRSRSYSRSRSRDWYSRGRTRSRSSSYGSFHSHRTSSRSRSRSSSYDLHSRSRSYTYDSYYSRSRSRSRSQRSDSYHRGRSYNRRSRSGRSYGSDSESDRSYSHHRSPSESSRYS
UniProt P32883, whole entry: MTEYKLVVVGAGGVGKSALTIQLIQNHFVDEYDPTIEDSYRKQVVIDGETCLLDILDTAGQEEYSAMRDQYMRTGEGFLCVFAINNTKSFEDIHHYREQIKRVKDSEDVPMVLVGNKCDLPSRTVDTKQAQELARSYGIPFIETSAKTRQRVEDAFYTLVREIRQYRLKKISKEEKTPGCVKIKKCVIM

This is one part of the list. Small differences around the control level are noise.

Compound in this experiment: CN[C@@H]1C[C@H]2O[C@@](C)([C@@H]1OC)n1c3ccccc3c3c4c(c5c6ccccc6n2c5c31)C(=O)NC4 [staurosporine]
As to the kind of experiment: log2 fold change of tryptic peptide abundance, ligand vs vehicle (limited proteolysis) (log2 ratio); higher = more trypsin-susceptible (destabilized). Conditions: ligand concentration: 20 uM; sample: mouse liver crude lysate; replicate design: treated separately.
As for “UniProt P17225 (peptide sequence: EGQEDQGLTKDYGSSPLHR, peptide start residue: 443)”, the log2 fold change is -0.146.
In the case of “UniProt P26350 (peptide sequence: KEVVEEAENGR, peptide start residue: 21)” it was 0.12; in that of “UniProt P29595 (peptide sequence: QMNDEKTAADYK, peptide start residue: 49)”, 0.176.
In the case of “UniProt P18608 (peptide sequence: KVSADGAAKAEPK, peptide start residue: 5)” it was -0.284; in that of “UniProt P27038 (peptide sequence: GLAYLHEDIPGLK, peptide start residue: 299)”, -0.568.
The same measure for “UniProt P23950 (peptide sequence: QPGSGQVNSSR, peptide start residue: 104)”: -0.2; for “UniProt P25322 (peptide sequence: TTHFLSR, peptide start residue: 229)”: -0.18.
“UniProt P28798 (peptide sequence: CVSPTGTHTLLK, peptide start residue: 177)”: the log2 fold change is 0.252.
“UniProt P18340 (peptide sequence: CSCISTSR, peptide start residue: 30)”: the log2 fold change worked out at 0.0131.
The same measure for “UniProt P16110 (peptide sequence: QDNNWGKEER, peptide start residue: 191)”: -0.798.
The same measure for “UniProt P27601 (peptide sequence: DVKDTILHDNLK, peptide start residue: 361)”: -0.361; for “UniProt P16301 (peptide sequence: TLEHINAILLGAYR, peptide start residue: 410)”: -0.217.
Consider “UniProt P27656 (peptide sequence: VFVNCEVK, peptide start residue: 484)”, for which the log2 fold change is -0.623.
Take “UniProt P15975 (peptide sequence: EHVYQTNEHKVERPDR, peptide start residue: 801)”: the log2 fold change was 0.441.
Regarding “UniProt P27782 (peptide sequence: KPLNAFMLYMK, peptide start residue: 329)”, the log2 fold change was determined as 0.576.
With “UniProt P28667 (peptide sequence: LSGLSFKR, peptide start residue: 100)”, the log2 fold change came out at 0.176.
The same measure for “UniProt P31651 (peptide sequence: QELIAWEKETHL, peptide start residue: 603)”: -0.277.
For the target “UniProt P20108 (peptide sequence: EYFEKVHQ, peptide start residue: 250)”, the log2 fold change is -0.188.
Take “UniProt P24457 (peptide sequence: AKGNPESSFNDENLR, peptide start residue: 285)”: the log2 fold change is -0.538.
Consider “UniProt P19788 (peptide sequence: NANTFMSPQQR, peptide start residue: 39)”, for which the log2 fold change was found to be 0.0989.
The same measure for “UniProt P21570 (peptide sequence: FLTQHHDAKPK, peptide start residue: 33)”: 0.443; for “UniProt P17156 (peptide sequence: MVSHLAEEFKR, peptide start residue: 240)”: 0.14; for “UniProt P28063 (peptide sequence: ATAGSYISSLR, peptide start residue: 92)”: 0.586.
For “UniProt P30415 (peptide sequence: TTHLLPVQSTYSLTNIK, peptide start residue: 638)”, the log2 fold change is -0.276.
In the case of “UniProt P30282 (peptide sequence: MELLCCEGTRHAPR, peptide start residue: 1)” it was -0.338; in that of “UniProt P32883 (peptide sequence: VKDSEDVPMVLVGNKCDLPSR, peptide start residue: 103)”, -0.51; in that of “UniProt P17141 (peptide sequence: LQQDDEHREEK, peptide start residue: 88)”, -0.343.
The same measure for “UniProt P16294 (peptide sequence: IEVVAGEYNIDK, peptide start residue: 285)”: 0.177.
